Experimental data: PubChem BioAssay AID1159578 (Peter MacCallum Cancer Centre, 2015)
The deposit covers about 18,000 reagents; shown is a part drawn at random. In the full data, about 1,030 (5.7%) are marked active. 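Inactive calls also include pools with fewer than 3300 nuclei, whose migration was not assessed.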 The raw values are shown without normalisation. A number with no mark means an inactive call.

Purpose: 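Knock-downs that alter how fast lymphatic endothelial cells migrate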 (primary screen)
Cell system: human lymphatic endothelial cells
Reagents: siRNA pool against human genes, 40 nM
Duration: 48 h after transfection
Detection: 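Cells stained with dye and imaged after a scratch; covered wound area and nuclei counted, duplicates averaged, migration set against mock wells and turned into a robust z-score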
Scale: migration robust z-score: higher = faster migration into the scratch; migration relative to mock: higher = more scratch area covered than mock; nuclei per well: higher = more cells in the well
Hit rule: 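Migration changed when robust z exceeds 2 or falls below -2 and mean nuclei number is at least 3300; otherwise not called changed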
Calls: active = migration changed; inactive = no migration change, or too few cells

target	migration robust z-score	migration class with cell-count check	migration relative to mock	nuclei per well, duplicate mean
USHBP1 (USH1 protein network component harmonin binding protein 1)	-0.8	migration z between -2 and 2; enough cells	0.68	5404
OR4P4 (olfactory receptor family 4 subfamily P member 4)	0.72	migration z between -2 and 2; enough cells	1.08	5437
INCENP (inner centromere protein)	0.46	under 3300 nuclei; migration not judged	1	2874
CA6 (carbonic anhydrase 6)	-0.06	migration z between -2 and 2; enough cells	0.8	5240
PPT1 (palmitoyl-protein thioesterase 1)	0.57	migration z between -2 and 2; enough cells	0.92	6814
OR1K1 (olfactory receptor family 1 subfamily K member 1)	0.94	migration z between -2 and 2; enough cells	1.12	5014
FCF1 (FCF1 rRNA-processing protein)	-0.6	migration z between -2 and 2; enough cells	0.73	4306
PATZ1 (POZ/BTB and AT hook containing zinc finger 1)	1.5	migration z between -2 and 2; enough cells	1.09	5158
SETD1A (SET domain containing 1A, histone lysine methyltransferase)	0.78	migration z between -2 and 2; enough cells	0.96	6246
FFAR3 (free fatty acid receptor 3)	0.42	migration z between -2 and 2; enough cells	0.88	3883
YEATS4 (YEATS domain containing 4)	0.1	under 3300 nuclei; migration not judged	0.82	2929
AARS1 (alanyl-tRNA synthetase 1)	-1.77	migration z between -2 and 2; enough cells	0.46	5814
GFRAL (GDNF family receptor alpha like)	-0.38	migration z between -2 and 2; enough cells	0.78	5937
UBE2J2 (ubiquitin conjugating enzyme E2 J2)	-0.99	migration z between -2 and 2; enough cells	0.61	3828
C6 (complement C6)	0.7	migration z between -2 and 2; enough cells	1.06	5824
RELA (RELA proto-oncogene, NF-kB subunit)	-2.18	under 3300 nuclei; migration not judged	0.38	3036
AQR (aquarius intron-binding spliceosomal factor)	-1.7	migration z between -2 and 2; enough cells	0.44	3763
ENY2 (ENY2 transcription and export complex 2 subunit)	2.25 (active)	migration z above 2; enough cells	1.47	6894
ZNF628 (zinc finger protein 628)	-0.08	migration z between -2 and 2; enough cells	0.86	5624
GTF2IRD1 (GTF2I repeat domain containing 1)	-1.15	migration z between -2 and 2; enough cells	0.58	5558
LMX1A (LIM homeobox transcription factor 1 alpha)	-0.34	migration z between -2 and 2; enough cells	0.74	4740
CSE1L (chromosome segregation 1 like)	-1.04	migration z between -2 and 2; enough cells	0.6	4492
RCBTB1 (RCC1 and BTB domain containing protein 1)	-0.44	migration z between -2 and 2; enough cells	0.77	7017
TSPAN6 (tetraspanin 6)	0.3	migration z between -2 and 2; enough cells	0.97	6795
PLEKHN1 (pleckstrin homology domain containing N1)	1.25	migration z between -2 and 2; enough cells	1.21	6176
SCLY (selenocysteine lyase)	1.86	migration z between -2 and 2; enough cells	1.17	4798
KCNC3 (potassium voltage-gated channel subfamily C member 3)	-0.62	migration z between -2 and 2; enough cells	0.68	5882
EGR4 (early growth response 4)	-0.78	migration z between -2 and 2; enough cells	0.66	4674
SLX4 (SLX4 structure-specific endonuclease subunit)	-0.86	migration z between -2 and 2; enough cells	0.66	4982
UBD (ubiquitin like modifier D)	-0.31	migration z between -2 and 2; enough cells	0.74	6124
MS4A3 (membrane spanning 4-domains A3)	1.9	migration z between -2 and 2; enough cells	1.38	7192
C2orf76 (chromosome 2 open reading frame 76)	1.14	migration z between -2 and 2; enough cells	1.18	4680
PRR11 (proline rich 11)	0.08	migration z between -2 and 2; enough cells	0.91	5581
HCRTR1 (hypocretin receptor 1)	-0.2	migration z between -2 and 2; enough cells	0.76	5984
AGR2	2.97 (active)	migration z above 2; enough cells	1.66	6639
HSD17B14 (hydroxysteroid 17-beta dehydrogenase 14)	0.05	migration z between -2 and 2; enough cells	0.82	3584
OR13C9 (olfactory receptor family 13 subfamily C member 9)	1.26	migration z between -2 and 2; enough cells	1.22	5624
STK10 (serine/threonine kinase 10)	-2	migration z between -2 and 2; enough cells	0.42	4178
PNRC2 (proline rich nuclear receptor coactivator 2)	0.84	migration z between -2 and 2; enough cells	1.1	6248

Part of the list above, set out differently:
INCENP (inner centromere protein): migration robust z-score = 0.46; migration class with cell-count check = under 3300 nuclei; migration not judged; migration relative to mock = 1; nuclei per well, duplicate mean = 2874
CA6 (carbonic anhydrase 6): migration robust z-score = -0.06; migration class with cell-count check = migration z between -2 and 2; enough cells; migration relative to mock = 0.8; nuclei per well, duplicate mean = 5240
PPT1 (palmitoyl-protein thioesterase 1): migration robust z-score = 0.57; migration class with cell-count check = migration z between -2 and 2; enough cells; migration relative to mock = 0.92; nuclei per well, duplicate mean = 6814
OR1K1 (olfactory receptor family 1 subfamily K member 1): migration robust z-score = 0.94; migration class with cell-count check = migration z between -2 and 2; enough cells; migration relative to mock = 1.12; nuclei per well, duplicate mean = 5014
FCF1 (FCF1 rRNA-processing protein): migration robust z-score = -0.6; migration class with cell-count check = migration z between -2 and 2; enough cells; migration relative to mock = 0.73; nuclei per well, duplicate mean = 4306
